Results deposited as PubChem BioAssay AID1259405 (NCATS, 2018).
Shown is one part, drawn at random, of about 50,000 reagents. In the full data, about 4,000 (8%) are marked active. 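Mouse siRNA library applied to hamster cells; one well for each siRNA.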 A number with no mark means an inactive call. The numbers tell different reagents against one gene apart.

Aim: 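Knock-downs that lift recombinant protein yield in hamster ovary cells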 (primary screen)
Cells: Chinese hamster CHO-K1 ovary cells with stable secreted eGFP expression
Reagents: single siRNA against mouse genes, 0.8 pmol siRNA per well (2 µl of 400 nM stock)
Time to read-out: 3 days
Measured: 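Percent of the per-plate non-targeting control median for intracellular GFP per well by laser scanning cytometry and for cell viability by ATP luminescence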
Scale: GFP, % of control: higher = more GFP per well, higher productivity; viability (ATP), % of control: higher = more viable cells (more ATP)
Active means: 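Called active when intracellular GFP, relative to negative control, is at or above 120%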

gene,reagent,"GFP, % of control","viability (ATP), % of control"
Prpf39 (GeneID 328110),1,41.6,29.2
Prpf39 (GeneID 328110),2,45.8,54.7
Prpf39 (GeneID 328110),3,85.8,100
Cstpp1 (GeneID 228356),1,80.8,72.4
Cstpp1 (GeneID 228356),2,41.7,17.7
Cstpp1 (GeneID 228356),3,60.5,66.2
Pik3ap1 (GeneID 83490),1,58.7,75
Pik3ap1 (GeneID 83490),2,95,61.4
C1qtnf12 (GeneID 67389),1,109,87.9
C1qtnf12 (GeneID 67389),2,101,70.1
C1qtnf12 (GeneID 67389),3,69.7,64.2
Art1 (GeneID 11870),1,148 (active),72.9
Art1 (GeneID 11870),2,46.7,45.2
Art1 (GeneID 11870),3,104,60.9
Lrig3 (GeneID 320398),1,56,51.6
Lrig3 (GeneID 320398),2,91.7,92.8
Lrig3 (GeneID 320398),3,54,86.9
Cyp2c29 (GeneID 13095),1,86.4,86.1
Cyp2c29 (GeneID 13095),2,66.7,43.3
Cyp2c29 (GeneID 13095),3,80.6,67.6
Mdp1 (GeneID 67881),1,56.3,55.5
Mdp1 (GeneID 67881),2,89.8,89.3
Mdp1 (GeneID 67881),3,95.8,87.5
B3galnt1 (GeneID 26879),1,98.2,92
B3galnt1 (GeneID 26879),2,82.9,91.1
B3galnt1 (GeneID 26879),3,26.3,26.3
Oxct1 (GeneID 67041),1,96.8,89.2
Oxct1 (GeneID 67041),2,19.1,47.1
Oxct1 (GeneID 67041),3,141 (active),116
Abcg8 (GeneID 67470),1,79.8,43.1
Abcg8 (GeneID 67470),2,89.2,62.4
Abcg8 (GeneID 67470),3,93.1,65.6
Arid4a (GeneID 238247),1,57.5,147
Arid4a (GeneID 238247),2,74.4,70.2
Arid4a (GeneID 238247),3,92.7,87.1
Fbxw5 (GeneID 30839),1,54.9,76.3
Fbxw5 (GeneID 30839),2,134 (active),89.6
Fbxw5 (GeneID 30839),3,136 (active),72.2
Dnaaf11 (GeneID 54562),1,79.4,89.9
Dnaaf11 (GeneID 54562),2,152 (active),62
Dnaaf11 (GeneID 54562),3,63.1,62.1
Gdf10 (GeneID 14560),1,43,36.7
Gdf10 (GeneID 14560),2,63.5,66.4
Gdf10 (GeneID 14560),3,34.1,35
Smco4 (GeneID 170748),1,133 (active),137
Smco4 (GeneID 170748),2,64.4,98.6
Smco4 (GeneID 170748),3,189 (active),148
Chek1 (GeneID 12649),1,80.5,73.7
Atf6b (GeneID 12915),1,63.8,55.2
Atf6b (GeneID 12915),2,99.6,85.6
Sorbs3 (GeneID 20410),1,70.5,60.5
Sorbs3 (GeneID 20410),2,52.5,69
Sorbs3 (GeneID 20410),3,47.8,67.5
Gch1 (GeneID 14528),1,89.9,73.1
Gch1 (GeneID 14528),2,108,101
Gch1 (GeneID 14528),3,45.4,55.4

7 entries from above, sorted by “viability (ATP), % of control”, descending:
gene,reagent,"GFP, % of control","viability (ATP), % of control"
Gch1 (GeneID 14528),2,108,101
Atf6b (GeneID 12915),2,99.6,85.6
Gch1 (GeneID 14528),1,89.9,73.1
Sorbs3 (GeneID 20410),2,52.5,69
Sorbs3 (GeneID 20410),3,47.8,67.5
Sorbs3 (GeneID 20410),1,70.5,60.5
Gch1 (GeneID 14528),3,45.4,55.4

Continued:
gene,reagent,"GFP, % of control","viability (ATP), % of control"
Nif3l1 (GeneID 65102),1,51.7,57.4
Nif3l1 (GeneID 65102),2,65.2,57.3
Nif3l1 (GeneID 65102),3,96.3,83.9
Plaat3 (GeneID 225845),1,85.2,64.4
Plaat3 (GeneID 225845),2,37.1,23.9
Plaat3 (GeneID 225845),3,34.8,48.5
Gemin5 (GeneID 216766),1,53.3,69.4
Gemin5 (GeneID 216766),2,70.6,73.8
Gemin5 (GeneID 216766),3,52,83.5
Zfp512 (GeneID 269639),1,113,66.6
Zfp512 (GeneID 269639),2,83.6,82.2
Zfp512 (GeneID 269639),3,107,102
Tuba4a (GeneID 22145),1,74.9,84.3
Tuba4a (GeneID 22145),2,157 (active),136
Nlgn1 (GeneID 192167),1,94.1,85.5
Nlgn1 (GeneID 192167),2,72.7,79.5
Nlgn1 (GeneID 192167),3,95.7,125
Alms1 (GeneID 236266),1,16,29.8
Alms1 (GeneID 236266),2,86.8,80.7
Alms1 (GeneID 236266),3,170 (active),127
Tpmt (GeneID 22017),1,50.9,58
Tpmt (GeneID 22017),2,76.8,82.2
Tpmt (GeneID 22017),3,187 (active),107
Sp1 (GeneID 20683),1,112,88.9
Sp1 (GeneID 20683),2,81.5,63.6
Copa (GeneID 12847),1,35.2,13.7
Copa (GeneID 12847),2,74.9,105
Copa (GeneID 12847),3,82.6,71.2
